Chains of the proteins cited; added tags and fusions are not shown. Lines headed by an entry give the natural chain unless they say otherwise; changes in a name come on top.
UniProt Q9UNA4: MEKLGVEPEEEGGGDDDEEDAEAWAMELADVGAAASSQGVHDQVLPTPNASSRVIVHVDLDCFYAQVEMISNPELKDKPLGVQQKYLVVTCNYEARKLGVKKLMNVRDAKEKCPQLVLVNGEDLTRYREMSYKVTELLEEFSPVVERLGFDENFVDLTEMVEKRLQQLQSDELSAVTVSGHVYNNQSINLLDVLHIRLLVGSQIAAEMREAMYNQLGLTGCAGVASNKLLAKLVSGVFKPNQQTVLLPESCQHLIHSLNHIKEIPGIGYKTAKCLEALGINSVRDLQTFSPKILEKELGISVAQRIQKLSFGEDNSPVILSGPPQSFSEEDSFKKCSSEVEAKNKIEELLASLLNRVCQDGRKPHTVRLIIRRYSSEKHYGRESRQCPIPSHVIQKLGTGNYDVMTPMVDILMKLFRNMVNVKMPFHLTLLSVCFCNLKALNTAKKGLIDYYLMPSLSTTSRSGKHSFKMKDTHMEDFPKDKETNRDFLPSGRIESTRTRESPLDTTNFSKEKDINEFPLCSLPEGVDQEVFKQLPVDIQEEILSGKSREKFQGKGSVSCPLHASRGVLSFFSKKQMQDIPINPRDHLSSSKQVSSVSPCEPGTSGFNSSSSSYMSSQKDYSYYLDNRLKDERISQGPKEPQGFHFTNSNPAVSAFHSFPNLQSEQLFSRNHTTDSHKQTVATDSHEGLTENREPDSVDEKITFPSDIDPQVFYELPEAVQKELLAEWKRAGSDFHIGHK

Where “and” joins values, the source holds several entries; their conditions need not be identical. Equal entries are not always repeated. The whole screen tested about 390,000 compounds, of which about 4,000 (1%) were called active. The shares of active, inactive and inconclusive entries below differ from those in the screen. Calls follow the shape of the dose curve; as a rule, active = well fitted inhibition curve with a large enough effect; inconclusive = small, poorly fitted or top-dose-only effect, or another doubt; inactive = no such curve, though single readings can be large or run the other way. Potencies of inconclusive entries are doubtful fits and often do not repeat.
What follows are compounds tested against DNA polymerase iota (Homo sapiens) (UniProt Q9UNA4) (assay: qHTS for Inhibitors of Polymerase Iota). Details: Pol iota fluorescent replication assay, 10 min; series mostly up to 115 µM; activity, negative = inhibition: at the top concentration.
Procedure, shortened: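 Pol iota at 10 nM preincubated 15 min with compounds at room temperature; reaction started with fluorescent substrate, 50 nM final. Fluorescence read kinetically at 0 and 10 min; buffer-only wells as negative control.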
For `O=C1C(Cl)=CC(=Nc2ccc(O)cc2)C=C1Cl`, the Potency was inconclusive: 20 µM [inhibitor, partial curve].
For `NS(=O)(=O)OC(CCc1ccccc1)C(Cl)(Cl)Cl` (stereo unspecified), the Potency was inconclusive: 70.8 µM [inhibitor, partial curve].
For `COc1ccc(N2C(=O)/C(=C/c3ccc(C)o3)C(=O)NC2=S)c(OC)c1`, the Potency was active: 11.2 µM.
With `Cc1cc(C)n(-c2ccc(NN=C(C#N)C#N)cc2)n1` the Potency was inconclusive: 11.2 µM [inhibitor, full curve, poor fit].
In the case of `CCN(C(=O)CSc1ncccc1C(=O)Oc1cccc([N+](=O)[O-])c1)c1cccc(C)c1`, the Potency is reported as inconclusive: 89.1 µM [inhibitor, single point].
With `O=c1c2ccccc2nc(-c2ccccc2)n1-c1ccccn1` the Potency was inconclusive: 7.08 µM [inhibitor, partial curve, poor fit].
For `Cc1ccc(S(=O)(=O)N(CC(=O)N/N=C\c2cccs2)c2cccc3cccnc23)cc1`, the Potency was inconclusive: 50.1 µM [inhibitor, partial curve].
With `O=C(NC1CCCCC1)Oc1cc2oc(=O)sc2cc1Cl` the Potency was inconclusive: 22.4 µM [inhibitor, partial curve, poor fit].
In the case of `COc1ccccc1CNC(=O)Cn1c(=O)oc2cc(Cl)ccc21`, the Potency is reported as inconclusive: 89.1 µM [inhibitor, single point].
In the case of `O=C1CN=C(c2ccc(Br)cc2)c2oc3ccccc3c2N1`, the Potency is reported as inconclusive: 10 µM [inhibitor, partial curve].
`C#C[C@]1(O)CCC2C3C(=O)C=C4C(Cl)=CCC[C@]4(C)C3CC[C@@]21C` (stereo partly specified) was tested, and the Potency was inconclusive: 35.5 µM [inhibitor, partial curve, poor fit].
`NC(=O)c1ccc(N=Cc2c(O)n(Cc3ccco3)c(=O)[nH]c2=O)cc1` was tested, and the Potency was active: 11.2 µM.
In the case of `O=C(O)Cn1cc(C=C2C(=O)NC(=O)NC2=O)c2ccccc21`, the Potency is reported as inconclusive: 17.8 µM [inhibitor, partial curve, poor fit].
`CC(C)CNC(=O)c1c(N)n(Cc2ccc3c(c2)OCO3)c2nc3ccccc3nc12` was tested, and the Potency was inconclusive: 35.5 µM [inhibitor, single point].
`CSc1ncc(C(=O)Nc2ccc(Cl)cc2C(=O)c2ccccc2)c(C)n1` was tested, and the Potency was inconclusive: 89.1 µM [inhibitor, single point].
For `O=C(O)CSCC(=O)N(Cc1ccccc1)c1nc(-c2ccccc2)c(-c2ccccc2)s1`, the Potency was active: 50.1 µM.
In the case of `CN(C)c1cc[n+](CC(O)C[n+]2ccc(N(C)C)cc2)cc1`, the Potency is reported as inconclusive: 25.1 µM [inhibitor, full curve, poor fit].
In the case of `Cc1noc(C(=O)Nc2sc3c(c2C#N)CCC3)c1Cl`, the Potency is reported as inconclusive: 35.5 µM [inhibitor, partial curve, poor fit].
With `COc1cccc(C(=O)Nc2ccc(-c3cc(C(F)(F)F)nn3-c3ccccc3)cc2)c1` the Potency was inconclusive: 50.1 µM [inhibitor, partial curve, poor fit].
In the case of `Cc1cc(C)cc(NC(=O)CCNC(=O)N2C[C@H]3C[C@@H](C2)c2cccc(=O)n2C3)c1`, the Potency is reported as inconclusive: 89.1 µM [inhibitor, partial curve, poor fit].
In the case of `CC(=O)CC(c1ccccc1)c1c(O)c2ccccc2oc1=O` (stereo unspecified), the Potency is reported as inconclusive: 3.55 µM [inhibitor, partial curve, poor fit].
For `S=C(S)N1CCCC1`, the Potency was inconclusive: 5.01 µM [inhibitor, full curve, poor fit].
In the case of `COCCn1c(-c2ccccc2)cc(C(=O)O)c1C`, the Potency is reported as inconclusive: 35.5 µM [inhibitor, single point].
`COC(=O)C(O)(c1ccc2c(c1)CCCN2)C(F)(F)F` (stereo unspecified) was tested, and the Potency was inconclusive: 89.1 µM [inhibitor, partial curve, poor fit].
In the case of `O=C1NC(=O)N(CCc2ccc(F)cc2)C(=O)/C1=C\C=C\c1ccccc1`, the Potency is reported as active: 3.16 µM.
`CNC(=O)Oc1ccc(N(C)C)cc1C(C)C` was tested, and the Potency was inconclusive: 44.7 µM [inhibitor, partial curve, poor fit].
In the case of `O=c1[nH]c(=S)[nH]c(O)c1/C=C1\C=Nc2ccccc21`, the “activity, negative = inhibition” value is reported as inactive: 60.1%.
`CC1=CC(=C2C(=O)NC(=S)NC2=O)C=C(C(F)(F)F)N1C` was tested, and the Potency was inconclusive: 89.1 µM [inhibitor, single point].
In the case of `CCOC(=O)c1c(N)n(CCCOC(=O)c2ccco2)c2nc3ccccc3nc12`, the Potency is reported as inconclusive: 8.91 µM [inhibitor, full curve, poor fit].
With `CC(C)Sc1nnc([C@@H](N)Cc2ccccc2)o1` the “activity, negative = inhibition” value was inactive: 9.27%.
With `COc1cccc(OC)c1-c1nn2c(-c3n[nH]c4c3CCC4)nnc2s1` the Potency was active: 50.1 µM and active: 5.01 µM.
`CN1CCC(N(C)c2nc(-c3ccc([N+](=O)[O-])cc3)nc3ccccc23)CC1` was tested, and the Potency was inconclusive: 79.4 µM [inhibitor, partial curve].
In the case of `Cc1cccc(NC(=O)[C@@H](NC(=O)N2C[C@H]3C[C@@H](C2)c2cccc(=O)n2C3)C(C)C)c1`, the “activity, negative = inhibition” value is reported as inactive: 8.88%.
`CCCC1COC(Cn2cncn2)(c2ccc(Cl)cc2Cl)O1` (stereo unspecified) was tested, and the Potency was inconclusive: 50.1 µM [inhibitor, partial curve, poor fit].
`COc1cc(O)c(C(=O)O)c(-c2cc(O)c(O)cc2C)c1` was tested, and the Potency was inconclusive: 44.7 µM [inhibitor, single point].
In the case of `CCc1ccc(-n2c(O)c(/C=N/N3CCCCC3c3cccnc3)c(=O)[nH]c2=O)cc1` (stereo unspecified), the “activity, negative = inhibition” value is reported as inactive: 17.6%.
With `CCN(CC1CCCN(CCc2cccc(OC)c2)C1)C(=O)c1ccc(COC)o1` (stereo unspecified) the “activity, negative = inhibition” value was inactive: 60.6%.
With `CCCC12CN3CC(C)(CN(C1)C3c1ccccn1)C2=O` (stereo unspecified) the “activity, negative = inhibition” value was inactive: 7.37%.
`Cc1cc(/C=C2\C(=O)NC(=O)N(c3cccc(F)c3)C2=O)c(C)n1-c1ccc(C(=O)O)c(Cl)c1` was tested, and the Potency was inconclusive: 25.1 µM [inhibitor, single point].
For `CCN(c1ccc(C)cc1C)S(=O)(=O)c1nnc(NC(=O)c2ccco2)s1`, the Potency was inconclusive: 31.6 µM [inhibitor, partial curve].
`Oc1ccc(Cl)cc1Sc1cc(Cl)ccc1O` was tested, and the Potency was inconclusive: 56.2 µM [inhibitor, partial curve, poor fit].
In the case of `Cc1ccc(OP2(=O)Nc3cc(C)c(C)cc3S2)cc1` (stereo unspecified), the Potency is reported as inconclusive: 15.8 µM [inhibitor, partial curve, poor fit].
In the case of `CCOC(=O)c1ccc(N=Cc2c(O)n(-c3ccc(OC)cc3)c(=S)[nH]c2=O)cc1`, the “activity, negative = inhibition” value is reported as inactive: -1.36%.
In the case of `COc1cc(Br)cc(CN2CCN(C)CC2)c1O`, the Potency is reported as inconclusive: 15.8 µM [inhibitor, partial curve].
With `Cc1ccc(Cl)cc1-n1c(O)c(C=NCCCN2CCOCC2)c(=O)[nH]c1=O` the Potency was inconclusive: 14.1 µM [inhibitor, single point].
In the case of `Cc1ccccc1CN1CCCN(Cc2ccc(Cl)cc2)S1(=O)=O`, the Potency is reported as inconclusive: 2 µM [inhibitor, partial curve, poor fit].
For `Cc1nn(-c2ccccc2)c2c1C(c1ccc(F)cc1F)C(C#N)=C(N)O2` (stereo unspecified), the Potency was inconclusive: 39.8 µM [inhibitor, single point].
In the case of `Cc1cc(Oc2cc(NN3CCCCC3)c([N+](=O)[O-])cc2[N+](=O)[O-])ccc1[N+](=O)[O-]`, the Potency is reported as inconclusive: 56.2 µM [inhibitor, partial curve, poor fit].
In the case of `COc1c(/C=C2/C(=O)NC(=O)N(C)C2=O)c(CCN(C)C(=O)c2ccccc2)cc2c1OCO2`, the Potency is reported as inconclusive: 31.6 µM [inhibitor, single point].
In the case of `O=C(Cn1ncc2c3ccccc3n(Cc3cccc(Cl)c3)c2c1=O)N1CCC2(CC1)OCCO2`, the Potency is reported as inconclusive: 25.1 µM [inhibitor, single point].
In the case of `C/C(=N\N1CCCCC1c1cccnc1)c1c(O)n(C2CCCCC2)c(=S)[nH]c1=O` (stereo unspecified), the Potency is reported as inconclusive: 79.4 µM [inhibitor, partial curve].
For `COc1cc(/C=C(/C)[N+](=O)[O-])ccc1OCc1ccccc1Cl`, the Potency was inconclusive: 7.94 µM [inhibitor, full curve, poor fit].
For `CCOC(=O)c1c(/N=C/c2c(O)n(-c3ccccc3F)c(=S)[nH]c2=O)sc2c1CCCC2`, the Potency was inconclusive: 39.8 µM [inhibitor, partial curve, poor fit].
`COc1ccc(OCCn2c(NC(=O)c3ccc(OC)cc3)nc3ccccc32)cc1` was tested, and the Potency was inconclusive: 89.1 µM [inhibitor, single point].
`COc1cccc2c1C(=O)c1c(O)c3c(c(O)c1C2=O)CC(O)(C(C)=NO)CC3OC1CC(N)C(O)C(C)O1` (stereo unspecified) was tested, and the Potency was active: 79.4 µM.
`Cn1cnc(CCN)c1` was tested, and the Potency was inconclusive: 11.2 µM [inhibitor, partial curve, poor fit].
`O=C1CC(N2CC=C(c3ccccc3)CC2)C(=O)N1c1ccc(F)cc1` (stereo unspecified) was tested, and the Potency was inconclusive: 44.7 µM [inhibitor, partial curve, poor fit].
For `CN1C(=O)C(=Cc2ccc(N3CCCCCC3)o2)C(=O)N(C)C1=S`, the Potency was inconclusive: 12.6 µM [inhibitor, partial curve, poor fit].
With `N#Cc1cc2c(nc1SCC(=O)Nc1ccc(F)c(Cl)c1)C1CCN2CC1` the “activity, negative = inhibition” value was inactive: -4.25%.
For `O=C(Nc1cc[c]([Sb](=[O])([OH])[OH])cc1)c1ccccc1`, the Potency was inconclusive: 20 µM [inhibitor, full curve, poor fit].
With `C/C1=C\[C@@H](C)C/C=C/[C@H]2[C@@H]3O[C@]3(C)[C@@H](C)[C@H]3[C@H](Cc4c[nH]c5ccccc45)NC(=O)[C@]32C(=O)/C=C/C(=O)[C@@H]1O` the Potency was inconclusive: 56.2 µM [inhibitor, partial curve, poor fit].
Potency is read from the fitted curve at half-maximal effect.
